Experimental data taken from patent publication US10435388B2, “Selective inhibitors of clinically important mutants of the EGFR tyrosine kinase” (CS PHARMATECH LIMITED, priority 2016, dated 2019).
A number of entries come with more than one value. The list is limited to them. There may be further records. The records of an entry do not match, cause unknown; they may come from other doses, times, organisms or constructs than stated.

Test system: PC9 cells (SM)
Assay: PC-9 growth inhibition assay (cell proliferation), Method B
Settings: read-out: SM (PC9) IC50 nM, cellular proliferation, 72 h, several runs

- IC50: 2.44 nM and 0.85 nM
Compound: C=CC(=O)Nc1cc(Nc2nccc(-c3c[nH]c4ccccc34)n2)c(OC)cc1N(C)CCN(C)C [AZD-5104]
